Test results taken from the supplement of paper PMC3334620.
Over roughly 33,000 sequences, “E-score (-0.5 to 0.5)” has its median near -0.0014; the highest 2% begin near 0.25. The list shows a part of the results.

Target: T1, Cad1 (UniProt P24813)
T1 sequence: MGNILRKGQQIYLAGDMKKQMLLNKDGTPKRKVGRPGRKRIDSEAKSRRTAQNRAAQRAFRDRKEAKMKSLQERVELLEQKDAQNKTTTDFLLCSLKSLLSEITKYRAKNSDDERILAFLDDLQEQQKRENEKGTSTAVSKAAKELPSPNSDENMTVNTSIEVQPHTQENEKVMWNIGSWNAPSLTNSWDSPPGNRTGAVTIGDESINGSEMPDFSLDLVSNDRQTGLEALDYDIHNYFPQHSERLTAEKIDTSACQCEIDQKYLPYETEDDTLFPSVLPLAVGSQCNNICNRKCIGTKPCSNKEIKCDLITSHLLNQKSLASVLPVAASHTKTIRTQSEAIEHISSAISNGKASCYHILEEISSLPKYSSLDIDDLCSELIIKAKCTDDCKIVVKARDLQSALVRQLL
Assay: PBM E-score (8-mer binding enrichment) (E-score (-0.5 to 0.5)); higher = stronger / more preferred TF binding
Conditions: protein concentration: 100 nM; construct: GST-full length
In short: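 The E-score, a modified Wilcoxon-Mann-Whitney statistic, was computed by the Universal PBM Analysis Suite for every ungapped eight-base word pooled with its reverse complement. Scans behind it were normalised with masliner after bound GST-tagged yeast transcription factors were detected with fluorescent anti-GST. The proteins, at about 100-200 nM, had been applied to universal all-10-mer Agilent arrays made double-stranded by primer extension.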

Sequence | PBM E-score
AGACCTAT | 0.111
CCAGTTAA | 0.147
AATTCATA | 0.143
GTTATCCA | 0.0106
CCATAGAC | -0.032
GACCGTCC | -0.207
AACACGTA | 0.0625
AACGTAGG | -0.174
GAGCGCTA | 0.212
GCCAGGAA | -0.0329
AGTGACAT | 0.0519
CCAAACAG | -0.12
GAGTAGAC | -0.0718
CAAAGCTC | -0.197
GCTATTTA | 0.028
GAAGCATA | -0.0401
ATGACGGA | -0.0767
AATCATCA | 0.143
ACAGCAGG | -0.079
CATGGAAA | 0.161
GAGTGGGA | -0.0669
CCACGCGG | -0.00784
CCCATTAA | -0.117
AAAAGACA | 0.117
ACGCACTG | -0.0467

Sequence | PBM E-score
ACCGAGAA | 0.0942
CTCCTAAC | -0.149
CTGTTTAC | 0.177
ACTCTGCC | -0.103
GTTTGCGA | 0.184
CGCCGAAC | 0.0826
TCACAAGA | 0.0647
ATGCGTAC | 0.09
CGCAGCCA | -0.152
CTACCAGA | 0.0942
ACGACACA | 0.0959
ATAGCTCG | -0.186
GAGTGAGA | -0.0459
ATAGCCAT | -0.0486
AGTTGGGA | -0.00743
CTGATGAA | 0.121
AACCTGTC | -0.089
ATTCGACC | -0.225
CGCGTTCC | 0.132
TGTAATAA | 0.22
GCCTATAC | -0.214
AGATTCCT | -0.114
CCATTTGC | 0.0915
ACGAACCA | 0.194
CAAGTAAG | -0.0761

Sequence | PBM E-score
GCATCTGA | -0.22
AAACGATT | 0.16
CAGCGAGG | -0.108
TGGAACCA | 0.14
GGTCACGA | -0.0986
CGGCAGAA | -0.0241
GCAGTGCC | -0.263
ATATGTCA | 0.232
CAAGGTGA | -0.0619
ATAACCGA | -0.0962
TATCGACA | 0.0374
ACAAGTCT | -0.0582
ATAAGTTC | 0.197
CCCGACGG | 0.0649
TATCGCCA | 0.127
CATCACAA | 0.186
AAAGCCGG | 0.137
AGACATAT | 0.0919
CACTCGTC | -0.0738
GAACTACA | 0.0994
GTGATCCA | -0.0545
GGGAGCCA | -0.276
AGATAGTA | 0.119
AGCGGCGC | -0.138
CGACATCA | 0.131

Sequence | PBM E-score
GCCCTTAA | -0.124
GAAGGGTC | -0.258
AAAATTAA | 0.209
CTTTCACA | 0.209
AACAAGAG | -0.2
CATGCCAC | -0.0783
GCGGCCTA | -0.195
CTACTCAG | 0.0115
AATGCCTG | -0.149
AGCGGTCC | -0.0253
TACGTGAA | 0.0711
CTAAGGGA | 0.0678
ACGCTCCC | -0.13
AAGCCATA | 0.0516
GAACGGTC | -0.0932
TCTTTTCA | 0.123
GAAGCTTA | -0.00313
AACTGACA | -0.142
ATTACCAC | 0.161
AGGAAAAT | 0.0777
AATATATC | 0.198
GATTAAGA | 0.18
AATACCAA | 0.214
GGATCAGA | -0.077
AACTAATC | 0.179

Sequence | PBM E-score
CTATGTAC | 0.0085
CGGCACCA | 0.0123
GAGACGGC | 0.112
CAGTGCCA | -0.223
AGGTTTGG | -0.0844
ACAAGTCC | -0.011
ATCTAGAT | -0.0319
GAATAACA | 0.252
ATCAGTCA | 0.217
ATGAACTC | 0.095
CTCTTAGC | 0.00705
GTGTACAA | 0.249
AGGAGAAA | 0.0385
CTCTATGA | -0.135
AAATTGCG | 0.176
AATAGACA | -0.0574
GACCACTA | 0.0706
ACCGGAGT | 0.014
GGCTTTAC | 0.0524
GTCTAGTA | 0.0789
ATGGCTGC | -0.0208
CCTAATAC | 0.013
ACTAGTTA | 0.0992
ACGGAACG | 0.00014
TCAGAAGA | -0.0837

Sequence | PBM E-score
CGCAAACA | 0.232
CTTATAAA | 0.275
ACGACCGC | -0.171
CCCCTTGC | -0.186
CAGTGGCC | 0.103
CAAATAGC | 0.0423
CTCCTGTA | 0.0303
GGTCGAAC | 0.0512
GGTAGTAA | -0.0434
AAGGTCGA | 0.0663
CACCGTCA | 0.0866
AGATTGCG | 0.0086
GTATCTCA | 0.0906
GCGCGCTA | 0.326
GGAGAAAA | 0.0547
AGATGACA | 0.139
TCATCTAA | 0.0408
CAGAGCTG | -0.03
AATCAGAC | 0.036
CTGGGAAA | -0.00187
AGTCATAA | 0.0277
GCCGTAAA | 0.13
CATCCACG | 0.0813
CCGGGGCG | -0.221
CAATCGTG | -0.0267

Sequence | PBM E-score
GCCATGCA | 0.0386
ATTCTTTA | -0.00088
CCACAACG | -0.079
TATCCGGA | 0.206
CGCCTTTC | -0.144
CGCGTCCA | 0.0682
GGATACCC | -0.0106
ATAAATGA | 0.0662
AGACGAAA | 0.154
CCAGCGCC | -0.213
AATCCCAT | -0.111
GATCCCGC | 0.0576
CGAGATCG | 0.0639
TAATTGAA | 0.0315
CCGAGTCC | -0.0687
AAGATGCA | 0.0982
CGGGCAAC | -0.162
GTACCACA | 0.0781
CATAATAG | 0.0957
ACGCCTGG | 0.042
GTTTTTTA | 0.055
AGCTTCAT | 0.106
